Reference: paper PMC11412891
Results are given in words; binding and its absence hold for the method and conditions named. Binding seen in cells or lysates may run through a third protein. Some results given as binding are weak or reduced against the parent protein; the word gives no strength. Sequences can lack the tags named with a protein.

B1: USP39 - SAD1 (protein, UniProt Q53GS9 1-565)
chain: MSGRSKRESRGSTRGKRESESRGSSGRVKRERDREREPEAASSRGSPVRVKREFEPASAREAPASVVPFVRVKREREVDEDSEPEREVRAKNGRVDSEDRRSRHCPYLDTINRSVLDFDFEKLCSISLSHINAYACLVCGKYFQGRGLKSHAYIHSVQFSHHVFLNLHTLKFYCLPDNYEIIDSSLEDITYVLKPTFTKQQIANLDKQAKLSRAYDGTTYLPGIVGLNNIKANDYANAVLQALSNVPPLRNYFLEEDNYKNIKRPPGDIMFLLVQRFGELMRKLWNPRNFKAHVSPHEMLQAVVLCSKKTFQITKQGDGVDFLSWFLNALHSALGGTKKKKKTIVTDVFQGSMRIFTKKLPHPDLPAEEKEQLLHNDEYQETMVESTFMYLTLDLPTAPLYKDEKEQLIIPQVPLFNILAKFNGITEKEYKTYKENFLKRFQLTKLPPYLIFCIKRFTKNNFFVEKNPTIVNFPITNVDLREYLSEEVQAVHKNTTYDLIANIVHDGKPSEGSYRIHVLHHGTGKWYELQDLQVTDILPQMITLSEAYIQIWKRRDNDETNQQGA
B2: SART1 (protein, UniProt O43290 1-800)
chain: MGSSKKHRGEKEAAGTTAAAGTGGATEQPPRHREHKKHKHRSGGSGGSGGERRKRSRERGGERGSGRRGAEAEARSSTHGRERSQAEPSERRVKREKRDDGYEAAASSKTSSGDASSLSIEETNKLRAKLGLKPLEVNAIKKEAGTKEEPVTADVINPMALRQREELREKLAAAKEKRLLNQKLGKIKTLGEDDPWLDDTAAWIERSRQLQKEKDLAEKRAKLLEEMDQEFGVSTLVEEEFGQRRQDLYSARDLQGLTVEHAIDSFREGETMILTLKDKGVLQEEEDVLVNVNLVDKERAEKNVELRKKKPDYLPYAEDESVDDLAQQKPRSILSKYDEELEGERPHSFRLEQGGTADGLRERELEEIRAKLRLQAQSLSTVGPRLASEYLTPEEMVTFKKTKRRVKKIRKKEKEVVVRADDLLPLGDQTQDGDFGSRLRGRGRRRVSEVEEEKEPVPQPLPSDDTRVENMDISDEEEGGAPPPGSPQVLEEDEAELELQKQLEKGRRLRQLQQLQQLRDSGEKVVEIVKKLESRQRGWEEDEDPERKGAIVFNATSEFCRTLGEIPTYGLAGNREEQEELMDFERDEERSANGGSESDGEENIGWSTVNLDEEKQQQDFSASSTTILDEEPIVNRGLAAALLLCQNKGLLETTVQKVARVKAPNKSLPSAVYCIEDKMAIDDKYSRREEYRGFTQDFKEKDGYKPDVKIEYVDETGRKLTPKEAFRQLSHRFHGKGSGKMKTERRMKKLDEEALLKKMSSSDTPLGTVALLQEKQKAQKTPYIVLSGSGKSMNANTITK
B3: DHX38 - Prp16 (protein, UniProt Q92620 1-1227)
chain: MGDTSEDASIHRLEGTDLDCQVGGLICKSKSAASEQHVFKAPAPRPSLLGLDLLASLKRREREEKDDGEDKKKSKVSSYKDWEESKDDQKDAEEEGGDQAGQNIRKDRHYRSARVETPSHPGGVSEEFWERSRQRERERREHGVYASSKEEKDWKKEKSRDRDYDRKRDRDERDRSRHSSRSERDGGSERSSRRNEPESPRHRPKDAATPSRSTWEEEDSGYGSSRRSQWESPSPTPSYRDSERSHRLSTRDRDRSVRGKYSDDTPLPTPSYKYNEWADDRRHLGSTPRLSRGRGRREEGEEGISFDTEEERQQWEDDQRQADRDWYMMDEGYDEFHNPLAYSSEDYVRRREQHLHKQKQKRISAQRRQINEDNERWETNRMLTSGVVHRLEVDEDFEEDNAAKVHLMVHNLVPPFLDGRIVFTKQPEPVIPVKDATSDLAIIARKGSQTVRKHREQKERKKAQHKHWELAGTKLGDIMGVKKEEEPDKAVTEDGKVDYRTEQKFADHMKRKSEASSEFAKKKSILEQRQYLPIFAVQQELLTIIRDNSIVIVVGETGSGKTTQLTQYLHEDGYTDYGMIGCTQPRRVAAMSVAKRVSEEMGGNLGEEVGYAIRFEDCTSENTLIKYMTDGILLRESLREADLDHYSAIIMDEAHERSLNTDVLFGLLREVVARRSDLKLIVTSATMDAEKFAAFFGNVPIFHIPGRTFPVDILFSKTPQEDYVEAAVKQSLQVHLSGAPGDILIFMPGQEDIEVTSDQIVEHLEELENAPALAVLPIYSQLPSDLQAKIFQKAPDGVRKCIVATNIAETSLTVDGIMFVIDSGYCKLKVFNPRIGMDALQIYPISQANANQRSGRAGRTGPGQCFRLYTQSAYKNELLTTTVPEIQRTNLANVVLLLKSLGVQDLLQFHFMDPPPEDNMLNSMYQLWILGALDNTGGLTSTGRLMVEFPLDPALSKMLIVSCDMGCSSEILLIVSMLSVPAIFYRPKGREEESDQIREKFAVPESDHLTYLNVYLQWKNNNYSTIWCNDHFIHAKAMRKVREVRAQLKDIMVQQRMSLASCGTDWDIVRKCICAAYFHQAAKLKGIGEYVNIRTGMPCHLHPTSSLFGMGYTPDYIVYHELVMTTKEYMQCVTAVDGEWLAELGPMFYSVKQAGKSRQENRRRAKEEASAMEEEMALAEEQLRARRQEQEKRSPLGSVRSTKIYTPGRKEQGEPMTPRRTPARFGL
B4: AQR (protein, UniProt O60306 1-1485)
chain: MAAPAQPKKIVAPTVSQINAEFVTQLACKYWAPHIKKKSPFDIKVIEDIYEKEIVKSRFAIRKIMLLEFSQYLENYLWMNYSPEVSSKAYLMSICCMVNEKFRENVPAWEIFKKKPDHFPFFFKHILKAALAETDGEFSLHEQTVLLLFLDHCFNSLEVDLIRSQVQQLISLPMWMGLQLARLELELKKTPKLRKFWNLIKKNDEKMDPEAREQAYQERRFLSQLIQKFISVLKSVPLSEPVTMDKVHYCERFIELMIDLEALLPTRRWFNTILDDSHLLVHCYLSNLVRREEDGHLFSQLLDMLKFYTGFEINDQTGNALTENEMTTIHYDRITSLQRAAFAHFPELYDFALSNVAEVDTRESLVKFFGPLSSNTLHQVASYLCLLPTLPKNEDTTFDKEFLLELLVSRHERRISQIQQLNQMPLYPTEKIIWDENIVPTEYYSGEGCLALPKLNLQFLTLHDYLLRNFNLFRLESTYEIRQDIEDSVSRMKPWQSEYGGVVFGGWARMAQPIVAFTVVEVAKPNIGENWPTRVRADVTINLNVRDHIKDEWEGLRKHDVCFLITVRPTKPYGTKFDRRRPFIEQVGLVYVRGCEIQGMLDDKGRVIEDGPEPRPNLRGESRTFRVFLDPNQYQQDMTNTIQNGAEDVYETFNIIMRRKPKENNFKAVLETIRNLMNTDCVVPDWLHDIILGYGDPSSAHYSKMPNQIATLDFNDTFLSIEHLKASFPGHNVKVTVEDPALQIPPFRITFPVRSGKGKKRKDADVEDEDTEEAKTLIVEPHVIPNRGPYPYNQPKRNTIQFTHTQIEAIRAGMQPGLTMVVGPPGTGKTDVAVQIISNIYHNFPEQRTLIVTHSNQALNQLFEKIMALDIDERHLLRLGHGEEELETEKDFSRYGRVNYVLARRIELLEEVKRLQKSLGVPGDASYTCETAGYFFLYQVMSRWEEYISKVKNKGSTLPDVTEVSTFFPFHEYFANAPQPIFKGRSYEEDMEIAEGCFRHIKKIFTQLEEFRASELLRSGLDRSKYLLVKEAKIIAMTCTHAALKRHDLVKLGFKYDNILMEEAAQILEIETFIPLLLQNPQDGFSRLKRWIMIGDHHQLPPVIKNMAFQKYSNMEQSLFTRFVRVGVPTVDLDAQGRARASLCNLYNWRYKNLGNLPHVQLLPEFSTANAGLLYDFQLINVEDFQGVGESEPNPYFYQNLGEAEYVVALFMYMCLLGYPADKISILTTYNGQKHLIRDIINRRCGNNPLIGRPNKVTTVDRFQGQQNDYILLSLVRTRAVGHLRDVRRLVVAMSRARLGLYIFARVSLFQNCFELTPAFSQLTARPLHLHIIPTEPFPTTRKNGERPSHEVQIIKNMPQMANFVYNMYMHLIQTTHHYHQTLLQLPPAMVEEGEEVQNQETELETEEEAMTVQADIIPSPTDTSCRQETPAFQTDTTPSETGATSTPEAIPALSETTPTVVGAVSAPAEANTPQDATSAPEETK
B5: BRIX1 (protein, UniProt Q8TDN6 1-353)
chain: MAATKRKRRGGFAVQAKKPKRNEIDAEPPAKRHATAEEVEEEERDRIPGPVCKGKWKNKERILIFSSRGINFRTRHLMQDLRMLMPHSKADTKMDRKDKLFVINEVCEMKNCNKCIYFEAKKKQDLYMWLSNSPHGPSAKFLVQNIHTLAELKMTGNCLKGSRPLLSFDPAFDELPHYALLKELLIQIFSTPRYHPKSQPFVDHVFTFTILDNRIWFRNFQIIEEDAALVEIGPRFVLNLIKIFQGSFGGPTLYENPHYQSPNMHRRVIRSITAAKYREKQQVKDVQKLRKKEPKTLLPHDPTADVFVTPAEEKPIEIQWVKPEPKVDLKARKKRIYKRQRKMKQRMDSGKTK
B6: EAPP (protein, UniProt Q56P03 1-285)
chain: MNRLPDDYDPYAVEEPSDEEPALSSSEDEVDVLLHGTPDQKRKLIRECLTGESESSSEDEFEKEMEAELNSTMKTMEDKLSSLGTGSSSGNGKVATAPTRYYDDIYFDSDSEDEDRAVQVTKKKKKKQHKIPTNDELLYDPEKDNRDQAWVDAQRRGYHGLGPQRSRQQQPVPNSDAVLNCPACMTTLCLDCQRHESYKTQYRAMFVMNCSINKEEVLRYKASENRKKRRVHKKMRSNREDAAEKAETDVEEIYHPVMCTECSTEVAVYDKDEVFHFFNVLASHS
B7: BZW1 (protein, UniProt Q7L1Q6 1-419)
chain: MNNQKQQKPTLSGQRFKTRKRDEKERFDPTQFQDCIIQGLTETGTDLEAVAKFLDASGAKLDYRRYAETLFDILVAGGMLAPGGTLADDMMRTDVCVFAAQEDLETMQAFAQVFNKLIRRYKYLEKGFEDEVKKLLLFLKGFSESERNKLAMLTGVLLANGTLNASILNSLYNENLVKEGVSAAFAVKLFKSWINEKDINAVAASLRKVSMDNRLMELFPANKQSVEHFTKYFTEAGLKELSEYVRNQQTIGARKELQKELQEQMSRGDPFKDIILYVKEEMKKNNIPEPVVIGIVWSSVMSTVEWNKKEELVAEQAIKHLKQYSPLLAAFTTQGQSELTLLLKIQEYCYDNIHFMKAFQKIVVLFYKAEVLSEEPILKWYKDAHVAKGKSVFLEQMKKFVEWLKNAEEESESEAEEGD

molecular target: T1, CD2 Binding Protein 2 (CD2BP2/U5-52K), FLAG-tagged (human) (UniProt O95400); test: cross-linking; anti-FLAG IP of CD2BP2-FLAG from HEK293T CD2BP2-/- lysate (~100 mg protein), on-bead crosslinking with DSSO, tryptic digest, LC-MS2-MS3, XlinkX, 1 % FDR; two technical and two biological replicates
T1 sequence: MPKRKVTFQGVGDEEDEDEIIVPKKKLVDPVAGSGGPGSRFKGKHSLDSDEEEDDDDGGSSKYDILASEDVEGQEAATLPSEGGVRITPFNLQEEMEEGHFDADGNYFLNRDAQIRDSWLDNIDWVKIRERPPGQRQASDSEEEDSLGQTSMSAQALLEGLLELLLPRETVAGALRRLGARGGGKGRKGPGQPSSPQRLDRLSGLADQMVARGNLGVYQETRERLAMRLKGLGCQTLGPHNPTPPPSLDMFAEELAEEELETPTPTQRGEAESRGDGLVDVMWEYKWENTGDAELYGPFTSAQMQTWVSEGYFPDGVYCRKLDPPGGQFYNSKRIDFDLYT

binding, binds:
B1
B2
B3
B4
B5
B6
B7
